Assay results published in paper PMC4160250.

Sequences of proteins named here, by UniProt entry; tags and fusion partners are left off.
UniProt P22314: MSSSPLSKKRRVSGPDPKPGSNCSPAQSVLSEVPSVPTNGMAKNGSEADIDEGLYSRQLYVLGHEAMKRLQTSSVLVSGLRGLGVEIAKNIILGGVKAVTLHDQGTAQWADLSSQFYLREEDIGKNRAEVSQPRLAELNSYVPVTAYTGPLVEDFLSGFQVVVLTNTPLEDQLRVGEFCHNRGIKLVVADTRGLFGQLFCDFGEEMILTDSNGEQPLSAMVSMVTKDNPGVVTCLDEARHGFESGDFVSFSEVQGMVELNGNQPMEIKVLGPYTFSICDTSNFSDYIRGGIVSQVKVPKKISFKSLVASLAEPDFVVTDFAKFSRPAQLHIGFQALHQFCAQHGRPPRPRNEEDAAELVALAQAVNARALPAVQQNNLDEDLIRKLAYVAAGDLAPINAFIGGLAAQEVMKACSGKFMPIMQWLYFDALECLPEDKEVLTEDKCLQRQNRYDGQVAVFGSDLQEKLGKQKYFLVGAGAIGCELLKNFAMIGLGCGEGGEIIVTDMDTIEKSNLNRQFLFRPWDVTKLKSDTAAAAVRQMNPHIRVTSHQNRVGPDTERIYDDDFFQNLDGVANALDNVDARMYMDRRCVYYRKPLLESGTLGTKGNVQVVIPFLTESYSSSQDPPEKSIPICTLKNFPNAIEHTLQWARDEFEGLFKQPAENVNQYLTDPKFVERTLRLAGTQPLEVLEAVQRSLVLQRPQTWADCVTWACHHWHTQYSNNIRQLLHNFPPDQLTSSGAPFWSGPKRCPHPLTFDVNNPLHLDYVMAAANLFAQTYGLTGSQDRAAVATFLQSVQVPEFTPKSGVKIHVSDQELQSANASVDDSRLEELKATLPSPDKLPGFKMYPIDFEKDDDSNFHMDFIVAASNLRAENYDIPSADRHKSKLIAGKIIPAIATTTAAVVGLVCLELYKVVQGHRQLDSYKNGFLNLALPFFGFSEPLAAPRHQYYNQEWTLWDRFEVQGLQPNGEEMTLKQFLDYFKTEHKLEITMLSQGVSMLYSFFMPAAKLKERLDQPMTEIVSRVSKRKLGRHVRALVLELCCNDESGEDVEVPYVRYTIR
UniProt P45974: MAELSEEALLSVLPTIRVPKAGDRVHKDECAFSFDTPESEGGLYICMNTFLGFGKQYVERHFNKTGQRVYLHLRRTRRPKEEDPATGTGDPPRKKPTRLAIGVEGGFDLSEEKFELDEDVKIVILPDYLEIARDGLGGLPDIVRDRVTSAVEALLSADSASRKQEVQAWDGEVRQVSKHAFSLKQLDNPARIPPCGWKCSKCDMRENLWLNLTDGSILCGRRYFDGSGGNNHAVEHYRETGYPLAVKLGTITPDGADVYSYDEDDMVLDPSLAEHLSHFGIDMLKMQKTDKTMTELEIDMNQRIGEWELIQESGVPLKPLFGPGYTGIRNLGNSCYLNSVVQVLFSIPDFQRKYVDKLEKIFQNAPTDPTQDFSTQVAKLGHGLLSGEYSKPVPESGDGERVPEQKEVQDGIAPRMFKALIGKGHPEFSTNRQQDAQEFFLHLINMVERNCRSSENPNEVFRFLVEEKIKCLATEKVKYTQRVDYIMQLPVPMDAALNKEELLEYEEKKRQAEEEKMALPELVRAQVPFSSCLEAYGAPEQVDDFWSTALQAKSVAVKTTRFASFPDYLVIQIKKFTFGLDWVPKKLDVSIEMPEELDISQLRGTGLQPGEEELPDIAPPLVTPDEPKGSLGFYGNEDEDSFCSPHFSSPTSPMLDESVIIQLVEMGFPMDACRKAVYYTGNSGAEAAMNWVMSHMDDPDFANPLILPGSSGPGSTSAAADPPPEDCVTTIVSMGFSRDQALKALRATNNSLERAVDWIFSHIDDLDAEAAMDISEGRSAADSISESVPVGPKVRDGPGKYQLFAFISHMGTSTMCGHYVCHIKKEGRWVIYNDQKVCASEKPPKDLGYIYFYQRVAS

Biological target: T1, GST-fused DC-UbP (human) (UniProt Q8WUN7)
T1 sequence: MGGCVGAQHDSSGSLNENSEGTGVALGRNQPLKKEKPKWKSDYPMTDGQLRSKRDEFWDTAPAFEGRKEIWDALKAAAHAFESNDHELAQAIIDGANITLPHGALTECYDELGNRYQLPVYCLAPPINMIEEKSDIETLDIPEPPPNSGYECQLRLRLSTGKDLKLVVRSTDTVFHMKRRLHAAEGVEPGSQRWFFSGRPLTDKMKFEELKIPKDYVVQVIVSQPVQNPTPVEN
Test: affinity purification with mass spectrometry; GST-DC-UbP on glutathione-agarose, HEK 293T lysate (Buffer A: 20 mM HEPES, 150 mM NaCl, 1 mM EDTA, 10% glycerol, 1 mM DTT, 1% Triton X-100, pH 7.4), 3 h or overnight, washed with 350 mM NaCl, eluted with GSH, TCA-precipitated, silver-stained bands cut and read by LC-MS/MS; only the target purified

Substance | binding
P97/VCP of HEK 293T cells (from UniProt P55072 1-806) | binds
endogenous UbE1 (ubiquitin-activating enzyme E1) of HEK 293T cells (from UniProt P22314 1-1058) | binds
endogenous USP5 (ubiquitin-specific protease 5) of HEK 293T cells (from UniProt P45974 1-858) (enzyme) | binds

These are yes or no findings as the source states them, for the method shown. Binding seen in cells or lysates may run through a third protein. A yes stands for co-enrichment or nearness to the bait. Other partners may have been found. Sequences can lack the tags named with a protein.
